Data as given in paper PMC514542.
Results are given in words; binding and its absence hold for the method and conditions named. Binding seen in cells or lysates may run through a third protein. Some entries that bind do so weakly or less than the wild type.

The chains behind the UniProt entries cited, without tags or fusion partners. Where a name states a change or a piece, a line headed by the entry shows the natural chain unless it says otherwise. A line that says so, or that is headed by a name, gives the form on record, which may keep a tag or linker. Residues count along the entry.
UniProt Q13547: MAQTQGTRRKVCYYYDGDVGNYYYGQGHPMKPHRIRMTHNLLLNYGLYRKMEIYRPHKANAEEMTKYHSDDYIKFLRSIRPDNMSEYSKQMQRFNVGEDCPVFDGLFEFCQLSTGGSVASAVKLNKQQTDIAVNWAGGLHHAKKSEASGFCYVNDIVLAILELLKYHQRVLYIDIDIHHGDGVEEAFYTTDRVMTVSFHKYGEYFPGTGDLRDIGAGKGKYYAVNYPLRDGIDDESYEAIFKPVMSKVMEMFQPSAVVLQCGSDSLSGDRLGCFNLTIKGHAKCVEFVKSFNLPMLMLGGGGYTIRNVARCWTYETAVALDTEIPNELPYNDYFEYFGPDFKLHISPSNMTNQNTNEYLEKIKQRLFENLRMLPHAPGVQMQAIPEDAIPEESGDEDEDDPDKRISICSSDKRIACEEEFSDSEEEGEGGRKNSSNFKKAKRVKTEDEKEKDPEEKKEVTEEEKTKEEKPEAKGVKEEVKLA
UniProt P17844: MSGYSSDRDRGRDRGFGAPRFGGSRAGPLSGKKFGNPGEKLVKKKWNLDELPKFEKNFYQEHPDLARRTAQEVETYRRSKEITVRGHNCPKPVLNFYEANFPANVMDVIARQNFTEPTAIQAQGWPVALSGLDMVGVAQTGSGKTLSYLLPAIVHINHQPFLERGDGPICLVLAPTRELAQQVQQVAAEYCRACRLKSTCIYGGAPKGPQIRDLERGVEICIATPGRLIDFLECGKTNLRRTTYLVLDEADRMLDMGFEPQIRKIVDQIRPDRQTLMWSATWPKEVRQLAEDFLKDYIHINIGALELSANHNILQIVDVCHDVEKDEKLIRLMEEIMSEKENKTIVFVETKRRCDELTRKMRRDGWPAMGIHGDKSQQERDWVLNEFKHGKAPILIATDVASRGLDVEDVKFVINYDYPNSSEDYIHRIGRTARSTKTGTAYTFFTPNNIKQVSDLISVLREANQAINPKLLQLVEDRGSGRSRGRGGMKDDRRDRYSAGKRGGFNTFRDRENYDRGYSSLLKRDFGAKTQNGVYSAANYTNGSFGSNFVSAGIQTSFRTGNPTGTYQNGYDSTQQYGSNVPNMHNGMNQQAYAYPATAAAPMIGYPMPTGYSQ
UniProt Q92841: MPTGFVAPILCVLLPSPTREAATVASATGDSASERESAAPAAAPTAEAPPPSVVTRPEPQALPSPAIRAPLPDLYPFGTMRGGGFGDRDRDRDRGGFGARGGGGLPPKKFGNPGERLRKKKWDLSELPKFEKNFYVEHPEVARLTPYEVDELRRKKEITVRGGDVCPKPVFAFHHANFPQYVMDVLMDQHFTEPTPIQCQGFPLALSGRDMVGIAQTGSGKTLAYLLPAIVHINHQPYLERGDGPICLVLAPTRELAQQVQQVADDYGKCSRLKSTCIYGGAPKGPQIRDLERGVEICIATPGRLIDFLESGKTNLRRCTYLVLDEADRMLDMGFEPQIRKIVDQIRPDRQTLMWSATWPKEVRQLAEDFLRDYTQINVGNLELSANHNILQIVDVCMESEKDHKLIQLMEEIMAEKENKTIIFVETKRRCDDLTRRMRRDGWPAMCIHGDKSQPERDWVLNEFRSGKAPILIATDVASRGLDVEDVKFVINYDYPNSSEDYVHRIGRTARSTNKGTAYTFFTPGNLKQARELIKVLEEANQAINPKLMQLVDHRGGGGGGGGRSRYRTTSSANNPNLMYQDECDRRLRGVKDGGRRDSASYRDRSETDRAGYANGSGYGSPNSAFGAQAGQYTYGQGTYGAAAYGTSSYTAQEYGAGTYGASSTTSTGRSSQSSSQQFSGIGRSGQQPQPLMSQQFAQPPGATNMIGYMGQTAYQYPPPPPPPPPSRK
myc-tagged p72: residues 80-729 of Q92841
GAL4-tagged p72 deletion derivative, residues 1-474: residues 80-553 of Q92841

Legend:
[1] = molecular target: histone deacetylase 1 (HDAC1), endogenous (human (endogenous in U2OS and 293)) (UniProt Q13547); assay: co-IP; HDAC1 immunoprecipitated with an HDAC1-specific rabbit polyclonal antibody and protein G sepharose from nuclear extracts (U2OS untransfected; 293 transfected), RNAse/DNAse-treated, buffer D (20 mM Hepes pH 7.9, 150 mM NaCl), 1 h at 4°C; partner detected by western blot
[2] = molecular target: myc-tagged p68 (UniProt P17844); assay: co-IP; myc-tagged p68/p72 immunoprecipitated with the myc epitope antibody from nuclear extracts of transfected 293 cells, RNAse/DNAse-treated, buffer D (150 mM NaCl), 1 h at 4°C; HDAC1 detected by western blot
[3] = molecular target: myc-tagged p72 (UniProt Q92841); assay: as above

Row | Substance | binding [1] | binding [2] | binding [3]
1 | GAL4-tagged p72 deletion derivative, residues 1-474 (from UniProt Q92841-1 1-474) (domain or fragment) | binds | – | –
2 | p68 (Ddx5) DEAD box RNA helicase, endogenous (from UniProt P17844 1-614) | binds | – | –

Continued, values first:

Row | binding [1] | binding [2] | binding [3] | Substance
3 | binds | – | – | GAL4-tagged p68 deletion derivative, residues 1-478 (from UniProt P17844 1-478) (domain or fragment)
4 | – | binds | binds | histone deacetylase 1 (HDAC1), endogenous (from UniProt Q13547 1-482)
5 | binds | – | – | myc-tagged p72 (from UniProt Q92841-1 1-650)
